Data: publication doi:10.1101/2022.12.09.519723
No constants are given. Whether binding was seen depends on the method and setting. In cells and extracts the contact can be indirect. Some entries that bind do so weakly or less than the wild type.

By UniProt entry, the sequences of proteins in these tests, tags left out.
UniProt P41595: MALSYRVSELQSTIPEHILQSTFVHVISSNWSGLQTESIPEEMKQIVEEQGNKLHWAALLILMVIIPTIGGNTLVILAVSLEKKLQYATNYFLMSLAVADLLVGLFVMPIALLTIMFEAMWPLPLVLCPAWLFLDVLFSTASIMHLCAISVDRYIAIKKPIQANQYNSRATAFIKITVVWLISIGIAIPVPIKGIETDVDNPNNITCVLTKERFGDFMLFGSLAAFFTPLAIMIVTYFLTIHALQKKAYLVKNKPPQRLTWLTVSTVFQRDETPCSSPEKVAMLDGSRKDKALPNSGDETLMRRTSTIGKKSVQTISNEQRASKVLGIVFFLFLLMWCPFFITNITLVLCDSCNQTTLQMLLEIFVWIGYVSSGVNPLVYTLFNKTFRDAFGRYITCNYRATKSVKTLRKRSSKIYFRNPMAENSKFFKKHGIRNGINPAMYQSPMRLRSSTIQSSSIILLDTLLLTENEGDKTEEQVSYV
UniProt P08908: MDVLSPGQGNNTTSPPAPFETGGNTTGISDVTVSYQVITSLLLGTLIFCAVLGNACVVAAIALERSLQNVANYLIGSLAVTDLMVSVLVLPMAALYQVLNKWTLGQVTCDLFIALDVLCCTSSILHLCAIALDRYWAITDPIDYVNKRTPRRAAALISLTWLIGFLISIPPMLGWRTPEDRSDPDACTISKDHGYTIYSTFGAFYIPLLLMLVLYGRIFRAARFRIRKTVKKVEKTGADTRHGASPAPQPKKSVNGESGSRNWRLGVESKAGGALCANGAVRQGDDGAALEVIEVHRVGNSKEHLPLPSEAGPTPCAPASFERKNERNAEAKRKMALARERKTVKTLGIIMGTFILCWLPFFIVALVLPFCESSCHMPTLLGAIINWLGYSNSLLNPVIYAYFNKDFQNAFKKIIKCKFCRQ

Experiments:
[1] = target: HA-tagged 5-HT2B receptor (UniProt P41595); assay: co-IP
[2] = target: 5-HT2B-R-Rluc (5-HT2B receptor fused to Renilla luciferase, BRET donor) (UniProt P41595); assay: FRET or BRET

Row | binding [1] | binding [2] | Substance
1 | binds |  | myc-tagged 5-HT1A receptor (from UniProt P08908 1-422)
2 |  | binds | 5-HT1A-R-YFP (5-HT1A receptor fused to yellow fluorescent protein, BRET acceptor) (from UniProt P08908 1-422)
3 |  | no binding | YFP-tagged 5-HT2B-R (5-HT2B receptor fused to yellow fluorescent protein, BRET acceptor control) (from UniProt P41595 1-481)
